Results on 3 compounds are retold here after paper PMC10687119, “Quaternary Ammonium Salts of Cationic Lipopeptides with Lysine Residues — Synthesis, Antimicrobial, Hemolytic and Cytotoxic Activities” (Probiotics and Antimicrobial Proteins, 2023).

Like-named read-outs stand apart in the source and are kept apart here.

Data set [1] relates to K. pneumoniae ATCC 700603. The data set is classed as cell-based, Klebsiella pneumoniae. Particulars: for quotient SIqUSCLs/SIUSCLs in terms of HC50, K. pneumoniae: SI of qUSCL divided by SI of parent USCL. The protocol: (§1) The Acinetobacter baumannii ATCC BAA-1605, Enterococcus faecium ATCC 700221, Klebsiella aerogenes ATCC 13048, Klebsiella pneumoniae ATCC 700603, Pseudomonas aeruginosa ATCC 9027, Staphylococcus aureus ATCC 33591, Candida glabrata ATCC 15126 strains were acquired from the American Type Culture Collection (ATCC, Manassas, USA). All the strains were stored at −80 °C in Roti-Store cryo vials (Carl Roth GmbH, Germany) and before the tests were transferred into fresh Mueller–Hinton broth (MHB, Becton Dickinson, Poland) for bacteria or RPMI-1640 (Sigma-Aldrich, Germany) for fungi and incubated for 24 h at 37 °C. Then, the cultures were cultured on the Mueller–Hinton agar (BioMaxima, Poland) or Sabouraud dextrose agar (SDA, BioMaxima) plates, respectively, and incubated as just mentioned. For microbiological assays, a minimum of three to five well-isolated colonies of the same morphological type were carefully picked from the agar cultures. These colonies were transferred with sterile loop into fresh microbiological medium and incubated with shaking (100 rpm) at 37 °C until they reached logarithmic phase of growth. Cell densities for all assays were adjusted through spectrophotometric measurements (Multiskan GO Microplate Spectrophotometer, Thermo Fisher Scientific, Finland) at 600 and 530 nm for bacteria and fungi, respectively.
(§2) The MICs were determined by broth microdilution method according to the Clinical and Laboratory Standard Institute guidelines. For this purpose, initial inoculums of bacteria (5 × 10^5 CFU/mL) in MHB and yeasts (2 × 10^3 CFU/mL) in RPMI-1640 with 2% D-glucose were exposed to the ranging concentration of lipopeptides (1–512 μg/mL) and incubated at 37 °C for 18 h and 24 h, respectively. The experiments were conducted on 96-well microtiter polystyrene plates (Kartell, Italy). The growth was assessed visually after incubation and the MIC was assumed as the lowest peptide concentration at which a noticeable growth of microorganisms was inhibited. Benzalkonium chloride (Sigma-Aldrich, Germany) was used as reference compound. All experiments were conducted in triplicate.

A further data set relates to C. glabrata ATCC 15126. It is filed as cell-based, Candida glabrata. Particulars: for quotient SIqUSCLs/SIUSCLs in terms of HC50, C. glabrata: SI of qUSCL divided by SI of parent USCL. The protocol: as §1, §2
The subject of the next data set is S. aureus ATCC 33591. It is filed as cell-based, Staphylococcus aureus. The note with it: for quotient SIqUSCLs/SIUSCLs in terms of HC50, S. aureus: SI of qUSCL divided by SI of parent USCL. The protocol:
as §1, §2

In a further data set the test system is K. aerogenes ATCC 13048. The data set is classed as cell-based, Klebsiella aerogenes. The note with it: for quotient SIqUSCLs/SIUSCLs in terms of HC50, K. aerogenes: SI of qUSCL divided by SI of parent USCL. The protocol:
as §1, §2

Data set [2] deals with A. baumannii ATCC BAA 1605. The data set is classed as cell-based, Acinetobacter baumannii. Particulars: for quotient SIqUSCLs/SIUSCLs in terms of HC50, A. baumannii: SI of qUSCL divided by SI of parent USCL. The protocol:
as §1, §2

The test system of the next data set is P. aeruginosa ATCC 9027. The data set is classed as cell-based, Pseudomonas aeruginosa. The note with it: for quotient SIqUSCLs/SIUSCLs in terms of HC50, P. aeruginosa: SI of qUSCL divided by SI of parent USCL. The protocol: as §1, §2
In the next data set the test system is E. faecium ATCC 700221. It is filed as cell-based, Enterococcus faecium. Particulars: for quotient SIqUSCLs/SIUSCLs in terms of HC50, E. faecium: SI of qUSCL divided by SI of parent USCL. The protocol: as §1, §2

As for `CCCCCCCCCCCCCCCC(=O)N[C@@H](CCCC[N+](C)(C)C)C(=O)N[C@@H](CCCC[N+](C)(C)C)C(N)=O` [Peptide 2Pq, C16-K(Me3)^+K(Me3)^+-NH2], the “quotient SIqUSCLs/SIUSCLs in terms of HC50, K. pneumoniae” value in data set [1] is given as 0.6. Further, the “quotient SIqUSCLs/SIUSCLs in terms of HC50, C. glabrata” value in the data set on C. glabrata ATCC 15126 was 0.6. Besides, in the data set on S. aureus ATCC 33591, the “quotient SIqUSCLs/SIUSCLs in terms of HC50, S. aureus” value came to 0.6. The “quotient SIqUSCLs/SIUSCLs in terms of HC50, K. aerogenes” value in the data set on K. aerogenes ATCC 13048 is reported as 0.2. Further, in data set [2], the “quotient SIqUSCLs/SIUSCLs in terms of HC50, A. baumannii” value amounted to 1.2. Besides, in the data set on P. aeruginosa ATCC 9027, the “quotient SIqUSCLs/SIUSCLs in terms of HC50, P. aeruginosa” value is 0.1. In the data set on E. faecium ATCC 700221, the “quotient SIqUSCLs/SIUSCLs in terms of HC50, E. faecium” value is recorded as 1.2.
Regarding `CCCCCCCCCCCCCCCCCC(=O)N[C@@H](CCCC[N+](C)(C)C)C(=O)N[C@@H](CCCC[N+](C)(C)C)C(=O)N[C@@H](CCCC[N+](C)(C)C)C(N)=O` [Peptide 3Sq, C18-K(Me3)^+K(Me3)^+K(Me3)^+-NH2], the “quotient SIqUSCLs/SIUSCLs in terms of HC50, K. pneumoniae” value in data set [1] is given as 0.4. Besides, the “quotient SIqUSCLs/SIUSCLs in terms of HC50, C. glabrata” value in the data set with C. glabrata ATCC 15126 is reported as 0.8. Besides, the “quotient SIqUSCLs/SIUSCLs in terms of HC50, S. aureus” value in the data set on S. aureus ATCC 33591 stood at 0.7. Moreover, the “quotient SIqUSCLs/SIUSCLs in terms of HC50, K. aerogenes” value in the data set with K. aerogenes ATCC 13048 came out at 0.7. In addition, the “quotient SIqUSCLs/SIUSCLs in terms of HC50, A. baumannii” value in data set [2] came out at 3.0. Further, in the data set on P. aeruginosa ATCC 9027, the “quotient SIqUSCLs/SIUSCLs in terms of HC50, P. aeruginosa” value was 0.4. Moreover, the “quotient SIqUSCLs/SIUSCLs in terms of HC50, E. faecium” value in the data set on E. faecium ATCC 700221 is reported as 3.0.
On to “benzalkonium chloride [BAC, reference compound]”, for which the “Selectivity index (SI) K. pneumoniae” value in data set [1] (HC50/MIC) turned out to be 2.37; in data set [1] (IC50 (HaCaT)/MIC), 0.72. The “Selectivity index (SI) C. glabrata” value in the data set on C. glabrata ATCC 15126 (HC50/MIC) is on record as 9.50. In addition, the “Selectivity index (SI) S. aureus” value with S. aureus ATCC 33591 (HC50/MIC) was 9.50. The “Selectivity index (SI) K. aerogenes” value was determined as 2.37 with K. aerogenes ATCC 13048 (HC50/MIC) and 0.72 in the data set on K. aerogenes ATCC 13048 (IC50 (HaCaT)/MIC). Also, the “Selectivity index (SI) A. baumannii” value in data set [2] (HC50/MIC) was determined as 2.37; in data set [2] (IC50 (HaCaT)/MIC), 0.72. Further, the results for the “Selectivity index (SI) P. aeruginosa” value in the data set on P. aeruginosa ATCC 9027 (HC50/MIC) and in the data set with P. aeruginosa ATCC 9027 (IC50 (HaCaT)/MIC) were 1.19 and 0.36, respectively. For the same compound, the “Selectivity index (SI) E. faecium” value with E. faecium ATCC 700221 (HC50/MIC) came to 9.50.
